These are yes or no findings as the source states them, for the method shown. Binding seen in cells or lysates may run through a third protein. Some binding calls cover weakened binding; strength is not graded here.

The chains behind the UniProt entries cited, without tags or fusion partners. Residues count along the entry.
UniProt Q49AH0, residues 25-187: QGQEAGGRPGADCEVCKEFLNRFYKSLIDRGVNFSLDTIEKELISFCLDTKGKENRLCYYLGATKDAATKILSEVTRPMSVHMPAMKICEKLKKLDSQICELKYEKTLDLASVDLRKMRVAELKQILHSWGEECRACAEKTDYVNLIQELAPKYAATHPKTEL
UniProt P11021, residues 19-654: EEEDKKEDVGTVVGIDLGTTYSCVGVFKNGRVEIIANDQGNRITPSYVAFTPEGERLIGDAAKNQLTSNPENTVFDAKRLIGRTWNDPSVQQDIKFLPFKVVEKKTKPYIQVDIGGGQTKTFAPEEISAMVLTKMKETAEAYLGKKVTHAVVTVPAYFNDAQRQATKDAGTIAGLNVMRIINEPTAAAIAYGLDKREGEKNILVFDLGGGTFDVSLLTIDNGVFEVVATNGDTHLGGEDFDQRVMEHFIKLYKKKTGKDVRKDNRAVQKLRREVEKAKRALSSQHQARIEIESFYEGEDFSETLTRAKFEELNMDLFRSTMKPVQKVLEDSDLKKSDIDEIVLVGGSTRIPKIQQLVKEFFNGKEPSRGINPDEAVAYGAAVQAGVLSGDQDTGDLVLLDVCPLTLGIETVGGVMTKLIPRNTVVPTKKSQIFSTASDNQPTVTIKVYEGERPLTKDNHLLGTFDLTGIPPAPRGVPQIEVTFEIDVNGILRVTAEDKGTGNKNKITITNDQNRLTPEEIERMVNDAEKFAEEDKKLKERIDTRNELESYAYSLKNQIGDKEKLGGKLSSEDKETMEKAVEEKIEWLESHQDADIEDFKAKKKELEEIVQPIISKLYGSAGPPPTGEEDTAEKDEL
UniProt P61224: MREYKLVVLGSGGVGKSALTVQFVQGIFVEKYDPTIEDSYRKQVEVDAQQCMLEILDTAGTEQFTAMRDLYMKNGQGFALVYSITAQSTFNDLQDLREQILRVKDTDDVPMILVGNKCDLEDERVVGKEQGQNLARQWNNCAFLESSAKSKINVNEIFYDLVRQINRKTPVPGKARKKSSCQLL

The target in the assay is Recombinant human cerebral dopamine neurotrophic factor (CDNF) (human) (UniProt Q49AH0). The assay is described as follows: co-IP; lysates (2.4 mg) of human washed platelets treated with AA and CDNF; rabbit monoclonal anti-human CDNF antibody (4.8 μg) or IgG at 4°C overnight, protein A/G beads; western blot.

As for “GRP78 (Bip) (from UniProt P11021 19-654)”, the binding entry is “binds”.

Take “Ras-related protein 1b (Rap1b) (from UniProt P61224 1-184)”: the binding entry is “binds”.

The values above are taken from paper PMC11573613.
